No constants are given. Whether binding was seen depends on the method and setting. Some entries that bind do so weakly or less than the wild type. For some of these results: Sequences can lack the tags named with a protein.
Assays:
[1] = target: T1, human PD-L1 (full-length, on cells) (human, UniProt Q9NZQ7 19-290); assay: FACS blocking on PD-L1-CHO cells, lysate samples; the blocked ligand is not named on the sheet or in Example 17
T1 construct: whole, on cells; Expressed on CHO-s cells; also called human PD-L1-CHO; PD-L1-CHO

Sequences of proteins named here, by UniProt entry; tags and fusion partners are left off. Residues count along the entry.
UniProt Q9NZQ7, residues 19-290: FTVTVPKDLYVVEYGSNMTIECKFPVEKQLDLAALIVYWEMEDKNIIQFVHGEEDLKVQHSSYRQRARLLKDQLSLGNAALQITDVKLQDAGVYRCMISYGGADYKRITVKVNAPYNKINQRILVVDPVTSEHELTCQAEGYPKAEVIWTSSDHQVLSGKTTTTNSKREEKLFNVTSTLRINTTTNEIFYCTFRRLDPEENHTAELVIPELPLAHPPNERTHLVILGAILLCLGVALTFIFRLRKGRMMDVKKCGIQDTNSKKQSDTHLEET

[2] = target: rhesus monkey PD-L1 (full-length, on CHO-s cells) (rhesus monkey) (UniProt F6VEW6); assay: FACS, monkey PD-L1-CHO cells
[3] = target: T1, human PD-L1 (full-length, on cells); assay: FACS blocking on PD-L1-CHO cells; blocked ligand huPD-1 mouse Fc, anti-mouse Fc PE; MFI = bound PD-1
[4] = target: T1, human PD-L1 (full-length, on cells); assay: FACS, VHH lysate on PD-L1-CHO cells (FIG. 10), qualitative/semi-quantitative
[5] = target: T1, human PD-L1 (full-length, on cells); assay: FACS on PD-L1-CHO cells, anti-Llama IgG FITC

B1: 47 (VHH)
VHH: EVQLVESGGGLVQPGGSLRLSCAASRTLSNIRGMHWYRQAPGKGREWVGTIFIDLNTIVTDSVKGRFTISRDNAKNTLYLQMNTLRAEDTAVYYCAADVSGYGRAWGQGTTVTVSS
notes: also called SY01-D21-47
binding [1]: binds

B2: NB22D-21 chimeric VHH-Fc antibody (Fc fusion)
chain: EVQVQESGGGLVQAGGSLRLSCAHSRTDSNINGMHWYRQAPGKQRDWVGTIFIDGNTIVTDSVKGRFTISRDNAKNTLYLQMNTLKPEDTAVYFCAADVSGYGRAWGQGTQVTVSS
notes: also called parental antibody NB22D-21; parent molecule; not shown: human IgG1 Fc fragment, its N-terminus linked to the C-terminus of the VHH
binding [2]: binds

B3: NB22D-21-4 VHH-Fc chimeric antibody protein (Fc fusion)
chain: EVQLVESGGGLVQPGGSLRLSCAASRTDRNINTMHWYRQAPGKGREWVGTIFIDLNTIVTDSVKGRFTISRDNAKNTLYLQMNTLRAEDTAVYYCAADVSGYGRAWGQGTTVTVSS
notes: not shown: human IgG1 Fc fragment, its N-terminus linked to the C-terminus of the VHH
binding [2]: binds

B4: NB22D-21-24 VHH-Fc chimeric antibody protein (Fc fusion)
chain: EVQLVESGGGLVQPGGSLRLSCAASRTFSNIFGMHWYRQAPGKGREWVGTIFITGNTIVTDSVKGRFTISRDNAKNTLYLQMNTLRAEDTAVYYCAADVSGYGRAWGQGTTVTVSS
notes: as for B3
binding [2]: binds

B5: SY01-NB-004 (VHH lysate) (VHH)
VHH: EVQLVESGGGLVQPGGSLRLSCAHSRTDSNINGMHWYRQAPGKGREWVGTIFIDGNTLVTDSVKGRFTISRDNAKNTLYLQMNTLRAEDTAVYYCAADVSGYGRYWGQGTTVTVSS
binding [3]: binds
binding [4]: binds
binding [5]: binds

Source: patent US20230002494A1 (SANYOU BIOPHARMACEUTICALS, published 2023)
